Results are given in words; binding and its absence hold for the method and conditions named. Some results given as binding are weak or reduced against the parent protein; the word gives no strength.
Target: PD1
Experiment: SPR sandwich, CM5 chip: PD-1 first captured by immobilised H7-767, then PD-L2 injected

binding: binds
B1: PD-L2 (ligand)
chain: LFTVTVPKELYIIEHGSNVTLECNFDTGSHVNLGAITASLQKVENDTSPHRERATLLEEQLPLGKASFHIPQVQVRDEGQYQCIIIYGVAWDYKYLTLKVKASYRKINTHILKVPETDEVELTCQATGYPLAEVSWPNVSVPANTSHSRTPEGLYQVTSVLRLKPPPGRNFSCVFWNTHVRELTLASIDLQSQMEPRTHPT
